From PubChem BioAssay AID2551 (National Center for Advancing Translational Sciences (NCATS), 2010)
Screen size: about 310,000 compounds; about 17,000 (5.5%) were called active. The shares of active, inactive and inconclusive entries below differ from those in the screen. Calls follow the shape of the dose curve; as a rule, active = well fitted inhibition curve with a large enough effect; inconclusive = small, poorly fitted or top-dose-only effect, or effect the other way; inactive = no such curve, though single readings can be large or run the other way. A potency beside an inconclusive call is a rough fit, not a confirmed value.

Chains of the proteins cited; added tags and fusions are not shown. Lines headed by an entry give the natural chain unless they say otherwise; changes in a name come on top.
UniProt P51450: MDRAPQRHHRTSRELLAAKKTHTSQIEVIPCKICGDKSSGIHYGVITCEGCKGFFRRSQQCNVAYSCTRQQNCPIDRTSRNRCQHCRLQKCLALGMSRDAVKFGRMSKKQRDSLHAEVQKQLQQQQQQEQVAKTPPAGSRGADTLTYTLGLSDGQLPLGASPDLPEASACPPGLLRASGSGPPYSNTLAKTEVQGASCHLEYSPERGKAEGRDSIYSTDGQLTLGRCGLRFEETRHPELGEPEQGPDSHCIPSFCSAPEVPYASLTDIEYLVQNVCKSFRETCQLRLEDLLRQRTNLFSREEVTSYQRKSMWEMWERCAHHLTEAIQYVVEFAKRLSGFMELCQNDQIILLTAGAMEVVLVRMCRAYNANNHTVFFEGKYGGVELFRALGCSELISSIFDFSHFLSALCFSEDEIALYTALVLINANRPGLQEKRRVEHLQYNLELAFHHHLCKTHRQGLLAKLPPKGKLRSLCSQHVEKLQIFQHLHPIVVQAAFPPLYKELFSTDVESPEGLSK

Target: Nuclear receptor ROR-gamma (Mus musculus) (UniProt P51450)
Assay: qHTS for inhibitors of ROR gamma transcriptional activity; also: nearly all actives have a fitted effect of over 60% in size
Conditions: Drosophila S2 Gal4-RORgamma UAS-luciferase reporter, 20 h; series mostly up to 53.6 µM
Method in brief: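 Luciferase reporter read in Schneider cells carrying Gal4-RORγ (mouse) and UAS-Photinus luciferase; cells given compound 1 h before 700 uM copper sulfate induction, then incubated 20 h at ambient temperature.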
Potency is read from the fitted curve at half-maximal effect.

SMILES | Potency
Cc1ccc(-c2nsc3c(N4CCC(C(N)=O)CC4)ncnc23)cc1 | inconclusive: 1.41 µM [inhibitor, full curve, poor fit]
COc1cc(/C=N/n2c(SC)nnc(C(C)(C)C)c2=O)ccc1O | inconclusive: 1.78 µM [inhibitor, single point]
Cc1cccc(C(=O)NC(=S)Nc2ccccc2C(F)(F)F)c1 | active: 4.47 µM
Cc1cc(C(F)(F)F)n(-c2nc(C(=O)NNS(=O)(=O)c3ccccc3[N+](=O)[O-])cs2)n1 | inactive
Cn1cnc([N+](=O)[O-])c1Sc1nnc(-c2cccnc2)n1C | inconclusive: 20 µM [inhibitor, single point]
COc1ccc(CC(=O)Nc2ccc(S(=O)(=O)Nc3cc(OC)nc(OC)n3)cc2)cc1 | inconclusive: 35.5 µM [activator, single point]
O=C1Nc2cc(C(=O)N3CCC(N4CCCCC4)CC3)ccc2S/C1=C\c1ccccc1 | inconclusive: 35.5 µM [inhibitor, single point]
CC(=O)Nc1cc(C(=O)c2ccccc2)ccc1N1CCOCC1 | inconclusive: 22.4 µM [activator, single point]
O=C(Oc1cc(=O)n2ccccc2n1)c1ccccc1 | inactive
CCOC(=O)c1sc(NC(=O)c2cccs2)cc1C | inconclusive: 1.12 µM [activator, full curve]
CC(=O)c1ccc2noc(-c3ccccc3)c2c1 | inconclusive: 35.5 µM [activator, single point]
O=S(=O)(c1ccc2c(c1)OCCO2)N(Cc1ccc(F)cc1)Cc1nnc(-c2cccs2)o1 | inconclusive: 11.2 µM [inhibitor, partial curve]
CCC(C)c1ccccc1NC(=O)COC(=O)c1ccc(N2CCCC2)c([N+](=O)[O-])c1 (stereo not given) | inactive
CN=C1S/C(=C\c2cc(C)n(-c3ccccc3F)c2C)C(=O)N1C | inconclusive: 35.5 µM [inhibitor, single point]
CCOCCCNC(=S)N1C2CCC1CC(NC(=O)NC1CCCCC1)C2 (stereo not given) | inconclusive: 14.1 µM [activator, single point]
COc1ccc(Cc2nc3ccc(S(=O)(=O)N4CCOCC4)cc3[nH]2)cc1 | inconclusive: 12.6 µM [activator, partial curve, poor fit]
O=c1oc2ccccc2c(O)c1CN1CCCCC1 | inactive
CCCc1nc2oc3c(NCCCN(C)C)ncnc3c2c2c1CCCC2 | inconclusive: 35.5 µM [inhibitor, single point]
Cc1ccccc1OCc1nnc(SCCN2CCCC2)n1-c1ccccc1 | active: 11.2 µM
COc1ccc(N2CCN(S(=O)(=O)CCNC(=O)C34CC5CC(CC(C5)C3)C4)CC2)cc1 | inconclusive: 14.1 µM [activator, single point]
Cc1ccc(NC(=S)N(C)N)cc1Cl | inconclusive: 3.55 µM [inhibitor, partial curve, poor fit]
COc1cc(NC(=O)c2ccc(Br)o2)c(C(=O)O)cc1OC | inactive
Cc1c(C(=O)OC(C)C)[nH]c2c1C(=O)CC(C)(C)C2 | inconclusive: 17.8 µM [activator, single point]
CCOC(=O)COc1ccc(S(=O)(=O)Nc2ccc(C)cc2)cc1 | inconclusive: 35.5 µM [inhibitor, single point]

SMILES | Potency
Cc1nn(C)c(C)c1NC(=O)Nc1ccc(Cl)c(Cl)c1 | inactive
O=C(NC(=S)Nc1cc([N+](=O)[O-])ccc1O)C1CC1 | inconclusive: 2 µM [activator, partial curve, poor fit]
Cc1cccc(OCC(=O)N/N=C\c2cn(C)c3ccccc23)c1 | inconclusive: 35.5 µM [inhibitor, single point]
CCOC(=O)C1CCCN(c2c(Nc3ccc(C)c(C)c3)c(=O)c2=O)C1 (stereo not given) | inactive
CC12CS(=O)(=O)CC1SC(=S)N2Cc1ccccc1 (stereo not given) | inactive
C=C(Br)Cn1c(CCC)nc2ccccc21 | inconclusive: 10 µM [inhibitor, partial curve]
Cn1nccc1C(=O)Nc1ccc2c(c1)OCO2 | inactive
O=C(NCc1ccc(Cl)cc1)C(=O)NCC1OCCN1C(=O)c1cccs1 (stereo not given) | inconclusive: 7.94 µM [activator, partial curve, poor fit]
CC1CC=CC2C1C(=O)N(Cc1ccccc1)C2c1ccc2ccccc2c1Br (stereo not given) | inconclusive: 35.5 µM [inhibitor, single point]
C=CCn1c(SC(F)F)nc2scc(-c3ccco3)c2c1=O | inconclusive: 7.08 µM [inhibitor, full curve, poor fit]
COc1ccc(CCNC(=O)C2CCN(C(=O)c3ccc(C(C)(C)C)cc3)CC2)cc1 | inconclusive: 35.5 µM [activator, single point]
Nc1nc2n(n1)C(c1ccccc1Cl)CC(c1ccc(F)cc1)N2 (stereo not given) | inactive
CCc1nnc(NC(=O)/C=C/c2ccco2)s1 | inconclusive: 22.4 µM [activator, partial curve, poor fit]
CS(=O)(=O)c1ncc(Cl)c(C(=O)Nc2ccc(N3CCOCC3)cc2)n1 | active: 3.16 µM
COc1ccccc1-n1cnc2cc(NS(=O)(=O)c3ccccc3)ccc21 | inconclusive: 7.08 µM [inhibitor, partial curve]
CCN(CC(=O)Nc1sc2c(c1C#N)CCC(C)C2)Cc1nc2ccccc2c(=O)[nH]1 (stereo not given) | active: 2.51 µM
COc1ccc(C)cc1NC(=O)C(OC(=O)c1ccc(Cl)c(S(=O)(=O)N(C)c2ccccc2)c1)c1ccccc1 (stereo not given) | inconclusive: 17.8 µM [activator, single point]
COc1ccc(NC(=O)c2nc[nH]c2C(=O)N[C@@H](C)c2ccccc2)cc1 | active: 6.31 µM
Cc1cc(OCc2cc(C(=O)N3CCN(CC4CC4)CC3)no2)cc(C)c1Cl | inconclusive: 15.8 µM [activator, single point]
CC(C)C(=O)Nc1ccc(NC(=O)c2ccccn2)cn1 | inconclusive: 35.5 µM [inhibitor, single point]
CN1CCN(c2ccc(C(=O)c3ccc(F)cc3)cc2)CC1 | inconclusive: 0.562 µM [activator, full curve, poor fit]
CCOc1ccc2nc(N3C(=O)CNC3=S)sc2c1 | active: 1 µM
Oc1ccc(Br)cc1/C=N/NC(=S)NCCc1ccccc1 | active: 15.8 µM
COc1cccc(C(=O)CSc2nc3cccnc3n2C)c1 | inconclusive: 15.8 µM [activator, partial curve]

Gathered by group: the compounds so far containing a CF3 group
SMILES | Potency
Cc1cccc(C(=O)NC(=S)Nc2ccccc2C(F)(F)F)c1 | active: 4.47 µM
Cc1cc(C(F)(F)F)n(-c2nc(C(=O)NNS(=O)(=O)c3ccccc3[N+](=O)[O-])cs2)n1 | inactive

(next part)

SMILES | Potency
CC1(C)Cc2nc(Cl)c(C(N)=O)cc2CO1 | inactive
CCOc1cc(/C=C/C(=O)c2ccc(C)cc2)ccc1OCC(=O)N(C)C | inconclusive: 10 µM [activator, partial curve]
COc1ccccc1CNC(=O)COC(=O)[C@H](Cc1c[nH]c2ccccc12)NC(=O)c1cccs1 | inconclusive: 31.6 µM [activator, single point]
O=C(/C=C/c1cn(-c2ccccc2)nc1-c1ccc2c(c1)OCCO2)NCCO | inconclusive: 28.2 µM [inhibitor, single point]
COc1ccccc1-c1ccc(SCc2ccc(C)cc2)nn1 | inconclusive: 12.6 µM [activator, single point]
CCc1cccc(NS(=O)(=O)c2c(C)nc3sc(CC)nn3c2=O)c1 | inconclusive: 17.8 µM [activator, partial curve]
CCOc1ccc(N2C(=O)CC(Sc3n[nH]c(-c4ccccc4)n3)C2=O)cc1 (stereo not given) | inconclusive: 35.5 µM [inhibitor, single point]
Cc1ccc(C)c(NC(=S)N/N=C2\CCc3ccccc32)c1 | active: 7.08 µM
O=C(CCN1CCOCC1)Nc1ccc(F)cc1 | inactive
CN(C)CCCN(C(=O)c1ccc(Br)s1)c1nc2cc3c(cc2s1)OCO3 | inconclusive: 25.1 µM [inhibitor, single point]
O=C(Nc1nc2n(n1)C(c1ccc(F)cc1)CC(c1ccccc1)N2)c1ccco1 (stereo not given) | active: 3.16 µM
CC(=O)c1ccc(N2CCN(S(=O)(=O)c3ccc4c(c3)CC(C)N4C(C)=O)CC2)cc1 (stereo not given) | inconclusive: 35.5 µM [inhibitor, single point]
COC(=O)C1=C(O)C2(C(=O)O)CC(C(=O)OC)=C(O)C(C(=O)O)(C1)C2 | inactive
Cc1c(/C=N/NC(=O)CNc2ccccc2)c2ccccn2c1C(=O)c1ccncc1 | inconclusive: 8.91 µM [activator, partial curve]
COc1ccccc1Cn1c(=S)[nH]c2cc(C(=O)NCCN3CCOCC3)ccc2c1=O | inconclusive: 3.16 µM [inhibitor, single point]
CCCCCCCCCCCC(=O)OCC(O)C1OCC(O)C1O (stereo not given) | inactive
CCC(C)N(C(=O)Cn1nnc2ccccc21)C(C(=O)NCc1ccco1)c1cccc(OC)c1 (stereo not given) | inconclusive: 11.2 µM [activator, partial curve]
O=C(CCN1CCN(c2ccccc2)CC1)NNC(=S)Nc1ccccc1Cl | active: 8.91 µM
NC(=O)N=Nc1c(O)n(Cc2ccccc2)c2ccc(Br)cc12 | inconclusive: 7.08 µM [activator, full curve]
COc1ccc(-c2ccccc2)cc1NC(=O)c1cccs1 | inconclusive: 20 µM [activator, single point]
N#C/C(=C\c1coc2ccc(O)cc2c1=O)C(=O)Nc1nc2ccccc2s1 | inconclusive: 20 µM [inhibitor, partial curve, poor fit]
COc1ccccc1NS(=O)(=O)c1cccc(C(=O)N/N=C(\C)c2ccc3c(c2)OCCO3)c1 | inconclusive: 35.5 µM [inhibitor, single point]
